Among all 340,000 compounds or so, about 6,200 (1.8%) were called active. The inconclusive results got no clear call from the source; some entries with a clear call stand among them for comparison. The call rests on the fitted dose curve; in most records, active means well fitted activation curve with a large enough effect; inconclusive means small, poorly fitted or top-dose-only effect; inactive means no such curve, though single readings can be large or run the other way. Potencies of inconclusive entries are doubtful fits and often do not repeat.
Assay: A quantitative high throughput screen for small molecules that induce DNA re-replication in SW480 colon adenocarcinoma cells. Further: nearly all actives have a fitted effect of over 55% in size.
Details: Hoechst DNA content imaging, 48 h; series mostly up to 46.1 µM
Procedure, shortened: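 First, 250 cells per well were seeded. Next, compound or vehicle (23 nL) was pinned in, plates sat 48 hr at 37 C. Finally Hoechst was added for 40 min before fluorescence scanning.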
Potency means the concentration at half of the fitted maximal effect.

Q: With `Cc1ccc(C=C2C(Cl)=C(Cl)C(Cl)=C2Cl)cc1` as the compound, how does the Potency read?
A: inconclusive: 18.4 µM [activator, single point]

Q: Which Potency does the source give for `COc1cc(OC)c(/C=C2\C(=O)Nc3ccccc32)c(OC)c1` here?
A: active: 11.6 µM

Q: For `Cc1cc(C)cc(N2C(=O)NC(=O)/C(=C\c3cccn3-c3ccccc3)C2=O)c1`, which Potency is on record?
A: inconclusive: 23.1 µM [activator, single point]

Q: Which Potency does the source give for `Cc1ccc(CN2C(=O)NC(=O)C3(Cc4c(nc5ccccn5c4=O)N4CCCCCC43)C2=O)cc1` (stereo not given) here?
A: inconclusive: 29.1 µM [activator, single point]

Q: Which Potency does the source give for `O=C1c2ccccc2C(=O)C1C(=O)C(c1ccccc1)c1ccccc1` here?
A: inconclusive: 33.5 µM [activator, partial curve, poor fit]

Q: With `CN(C)Cc1c[nH]c2ccccc12` as the compound, how does the Potency read?
A: inactive

Q: For `CC(C)Oc1ccc(CCN)cc1Cl`, which Potency is on record?
A: inconclusive: 0.82 µM [activator, partial curve, poor fit]

Q: With `CO[C@H]1CC=C2CCN3CCC4=C(CC(=O)OC4)[C@]23C1` as the compound, how does the Potency read?
A: inactive

Q: For `Cc1cccc(NP(=O)(Oc2ccccc2)Oc2ccccc2)c1C`, which Potency is on record?
A: inconclusive: 16.4 µM [activator, partial curve, poor fit]

Q: Which Potency does the source give for `Cc1ccc(-n2c(C)nc3ccccc3c2=O)cc1C` here?
A: inconclusive: 16.4 µM [activator, single point]

Q: For `CCCCN1CCS(=O)(=O)N(Cc2ccccc2Br)CC(C(=O)OC)C1` (stereo not given), which Potency is on record?
A: inconclusive: 29.1 µM [activator, single point]

Q: Which Potency does the source give for `O=Cc1cn(CCCOc2ccccc2)c2ccccc12` here?
A: inactive

Q: With `O=c1c2cc(Cl)cc(Cl)c2nc(CN2CCOCC2)n1-c1ccccc1F` as the compound, how does the Potency read?
A: inconclusive: 29.1 µM [activator, single point]

Q: With `COc1ccc2cc1Oc1ccc(cc1)C[C@H]1c3cc(c(OC)cc3CCN1C)Oc1c(OC)c(OC)cc3c1[C@@H](C2)N(C)CC3` as the compound, how does the Potency read?
A: inconclusive: 18.4 µM [activator, partial curve, poor fit]

Q: For `CC(=O)O[C@@H]1/C=C/[C@](C)(O)C[C@@H](C)C/C=C/[C@H]2[C@H](O)C(C)=C(C)[C@H]3[C@H](Cc4ccccc4)NC(=O)[C@@]123`, which Potency is on record?
A: active: 18.4 µM

Q: With `CCOC(=O)c1nsnc1NCCCl` as the compound, how does the Potency read?
A: inconclusive: 0.58 µM [activator, full curve, poor fit]

Q: With `CCOC(=O)C1(CCCc2ccccc2)CCN(C2CCCC2)CC1` as the compound, how does the Potency read?
A: active: 16.4 µM

Q: With `O=C1NC(=O)C(=Cc2ccc(Sc3ccccc3)o2)C(=O)N1` as the compound, how does the Potency read?
A: inconclusive: 23.1 µM [activator, single point]

Q: With `COP(=O)(OC)c1nc(-c2cccc3ccccc23)oc1NCCc1ccccc1` as the compound, how does the Potency read?
A: inconclusive: 23.1 µM [activator, single point]

Q: Which Potency does the source give for `OC(CC#CCN1CCCCCC1)(c1ccccc1)C1CCCC1` (stereo not given) here?
A: inconclusive: 16.4 µM [activator, single point]

Q: With `COC(=O)C1=C(c2ccc(-c3ccccc3)c(F)c2)C[C@@H]2CC[C@H]1N2C(=O)NCCOc1ccccc1Cl` as the compound, how does the Potency read?
A: inconclusive: 29.1 µM [activator, single point]

Q: With `O=C1Nc2cc(C(=O)N3CCC4(CC3)OCCO4)ccc2S/C1=C\c1ccccc1` as the compound, how does the Potency read?
A: inconclusive: 29.1 µM [activator, single point]

Q: For `c1cncc(CNC2CCCCC2)c1`, which Potency is on record?
A: inactive

Q: For `N#Cc1ccc(N2CCNCC2)c(F)c1`, which Potency is on record?
A: inactive

Q: With `C=C1C(=O)O[C@@H]2C[C@@H](C)[C@H]3C=CC(=O)[C@]3(O)C[C@@H]12` as the compound, how does the Potency read?
A: inconclusive: 18.4 µM [activator, single point]

Q: With `COc1ccc(OC(=O)N2C/C(=C/c3ccccc3)C(=O)/C(=C\c3ccccc3)C2)cc1` as the compound, how does the Potency read?
A: active: 3.66 µM

Q: For `N#Cc1cc2c(nc1SCC(=O)Nc1ccc(Cl)cc1)C1CCN2CC1`, which Potency is on record?
A: inconclusive: 18.4 µM [activator, single point]

Q: Which Potency does the source give for `Nc1ccc2nc3c(c(Cl)c2c1)CCCC3` here?
A: inconclusive: 23.1 µM [activator, single point]

Q: With `CCOC(=O)C(O)(c1ccc(N(CC)S(=O)(=O)c2ccc(C)cc2)cc1)C(F)(F)F` (stereo not given) as the compound, how does the Potency read?
A: inconclusive: 18.4 µM [activator, single point]

Q: For `NC(N)=NN=C(/C=C/c1ccc([N+](=O)[O-])o1)/C=C/c1ccc([N+](=O)[O-])o1`, which Potency is on record?
A: inconclusive: 4.22 µM [activator, full curve]

Q: For `CC12CCC(O)CC1CCC1C2CCC2(C)C(C(=O)CC(O)C(F)(F)F)CCC12` (stereo not given), which Potency is on record?
A: inconclusive: 32.6 µM [activator, partial curve, poor fit]

Q: For `CC1(C)c2[nH]c3ccccc3c2C[C@H]2C(=O)N(Cc3ccccc3F)C(=O)N21`, which Potency is on record?
A: inconclusive: 2.59 µM [activator, partial curve, poor fit]

Q: With `CCOC(=O)Cc1csc(NC(=O)c2c(O)c3ccccc3n(CCC(C)C)c2=O)n1` as the compound, how does the Potency read?
A: inactive

Q: Which Potency does the source give for `Cc1ccc(C[n+]2c(-c3ccc(C)cc3)cc(-c3ccc(C)cc3)cc2-c2ccc(C)cc2)cc1` here?
A: inconclusive: 0.58 µM [activator, full curve, poor fit]

Q: Which Potency does the source give for `O=C1NC(=O)N(c2ccc3c(c2)OCO3)C(=O)/C1=C/c1cccs1` here?
A: inconclusive: 29.1 µM [activator, single point]

Q: With `CCOC(=O)c1c(-n2c(C)cc(/C=C3\C(=O)NC(=O)N(C)C3=O)c2C)sc2c1CCCC2` as the compound, how does the Potency read?
A: inconclusive: 16.4 µM [activator, single point]

Q: With `CN1CCCN(C(=O)COc2ccc(F)cc2Cl)CC1` as the compound, how does the Potency read?
A: inconclusive: 18.4 µM [activator, partial curve, poor fit]

Q: Which Potency does the source give for `CNc1ccc2oc(C[C@H]3O[C@@]4(CC[C@H]3C)O[C@H]([C@H](C)C(=O)c3ccc[nH]3)[C@H](C)C[C@H]4C)nc2c1C(=O)O` here?
A: inconclusive: 8.91 µM [activator, partial curve, poor fit]

Q: For `Cn1cc(C(=O)OCC(=O)Nc2ccccc2Cl)c2ccccc21`, which Potency is on record?
A: inconclusive: 0.058 µM [activator, full curve, poor fit]

Q: Which Potency does the source give for `CNC(=O)O/N=C(\N)Cc1csc2ccc(Cl)cc12` here?
A: inconclusive: 29.1 µM [activator, single point]
